These are yes or no findings as the source states them, for the method shown. A result given as binding can be weak or reduced; the word gives no strength.
Target: GST-tagged EhC2PK (E. histolytica)
Experiment: pull-down; GST-tagged protein loaded on glutathione-Sepharose beads, recombinant EhCaBP1 added, in the presence and absence of Ca2+; 4°C, 10 mM Tris-Cl pH 7.5, 100 mM NaCl, 0.1% NP-40, 2 mM DTT; blot with anti-EhCaBP1; both purified

B1: recombinant EhCaBP1 (protein, UniProt P38505 1-134)
chain: MAEALFKEIDVNGDGAVSYEEVKAFVSKKRAIKNEQLLQLIFKSIDADGNGEIDQNEFAKFYGSIQGQDLSDDKIGLKVLYKLMDVDGDGKLTKEEVTSFFKKHGIEKVAEQVMKADANGDGYITLEEFLEFSL
- binding: binds

From paper PMC4672914
